Reference: paper doi:10.1101/2023.12.11.571118
No constants are given. Whether binding was seen depends on the method and setting. Binding seen in cells or lysates may run through a third protein. A result given as binding can be weak or reduced; the word gives no strength.

Protein sequences, listed by entry. Tags and fused reporters are not part of them. Lines headed by an entry give the natural chain unless they say otherwise; changes in a name come on top.
UniProt Q949N0: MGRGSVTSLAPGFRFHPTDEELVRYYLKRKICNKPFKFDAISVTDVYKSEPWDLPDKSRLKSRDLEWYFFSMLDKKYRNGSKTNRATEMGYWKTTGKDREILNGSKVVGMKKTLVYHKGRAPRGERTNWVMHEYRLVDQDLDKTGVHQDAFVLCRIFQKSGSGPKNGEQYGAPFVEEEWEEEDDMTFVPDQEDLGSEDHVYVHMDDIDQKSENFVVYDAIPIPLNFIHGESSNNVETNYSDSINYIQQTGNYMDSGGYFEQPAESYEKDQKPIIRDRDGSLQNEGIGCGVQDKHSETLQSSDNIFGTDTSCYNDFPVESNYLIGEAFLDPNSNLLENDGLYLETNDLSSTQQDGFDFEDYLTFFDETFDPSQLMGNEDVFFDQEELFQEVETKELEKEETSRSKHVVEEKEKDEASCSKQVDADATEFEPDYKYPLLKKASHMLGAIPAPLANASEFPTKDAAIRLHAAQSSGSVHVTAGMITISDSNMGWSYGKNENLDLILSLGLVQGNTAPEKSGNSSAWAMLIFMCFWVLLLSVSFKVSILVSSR
UniProt Q84K00: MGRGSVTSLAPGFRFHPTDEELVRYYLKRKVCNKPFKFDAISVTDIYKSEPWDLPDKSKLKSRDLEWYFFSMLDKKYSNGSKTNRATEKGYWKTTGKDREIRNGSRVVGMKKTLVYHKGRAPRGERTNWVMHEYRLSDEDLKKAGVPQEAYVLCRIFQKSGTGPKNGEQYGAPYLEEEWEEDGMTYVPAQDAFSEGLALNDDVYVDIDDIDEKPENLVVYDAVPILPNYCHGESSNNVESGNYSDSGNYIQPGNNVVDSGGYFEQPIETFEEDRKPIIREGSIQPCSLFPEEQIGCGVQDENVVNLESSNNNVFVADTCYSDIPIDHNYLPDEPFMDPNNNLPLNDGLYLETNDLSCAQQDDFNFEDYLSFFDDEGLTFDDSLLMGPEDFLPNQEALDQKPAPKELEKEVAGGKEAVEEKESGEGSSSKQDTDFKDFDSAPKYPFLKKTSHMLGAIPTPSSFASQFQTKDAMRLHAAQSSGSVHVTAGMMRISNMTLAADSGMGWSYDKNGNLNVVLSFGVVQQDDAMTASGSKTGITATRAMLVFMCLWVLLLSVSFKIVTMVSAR

Legend:
GFP-NAC53 (A. thaliana) = GFP-NAC53 (A. thaliana) (UniProt Q949N0); assay: co-IP
GFP-NAC78 (A. thaliana) = GFP-NAC78 (A. thaliana) (UniProt Q84K00); assay: co-IP

binding (GFP-NAC53 (A. thaliana)): binds | binding (GFP-NAC78 (A. thaliana)): binds
B1: RFP-HRD1a (protein, UniProt Q9LW77 1-492)
chain: MIRLRTYAGLSFMATLAVIYHAFSSRGQFYPATVYLSTSKISLVLLLNMCLVLMLSLWHLVKFVFLGSLREAEVERLNEQAWRELMEILFAITIFRQDFSSGFLPLVVTLLLIKALHWLAQKRVEYIETTPSVSKLSHFRIVSFMGFLLLVDSLFMYSSIRHLIQSRQASVSLFFSFEYMILATTTVAIFVKYVFYVTDMLMDGQWEKKPVYTFYLELIRDLLHLSMYICFFFVIFMNYGVPLHLLRELYETFRNFQIRVSDYLRYRKITSNMNDRFPDATPEELTASDATCIICREEMTNAKKLICGHLFHVHCLRSWLERQQTCPTCRALVVPPENATSAAPGQRELHQGSQQGTSSSGNQGSEISSSAGVSNNSLSRHHARLQAAASAASVYGKSMVYPSANTVAWSSGVPGTEQVSTEPDQTLPQHNLPVENSHAYANMSETKLEEMRKSLETHLEILRNRLHFLETRKPESAGEPENKGKSVADAAE
